Tested on: THLE2 cells
Assay: MTT cytotoxicity assay against THLE2
Type: cell-based
Conditions: Homo sapiens, THLE-2, 48 h, normal liver cells, mean ± SD, n = 3
Description: The RPMI-1640 complete medium L-Glutamine (Lonza Verviers SPRL, Belgium, cat#12-604F) was used to cultivate the liver cancer (HepG2), normal liver (THLE2) cell lines purchased from the National Cancer Institute, Egypt. The cell lines were supplemented with 10% fetal bovine serum (Sigma-Aldrich, MO, USA) and 1% penicillin–streptomycin. Compounds were added to the cells on the second day at doses of “0, 0.01, 0.1, 1, 10, and 100 μM”. Cell viability was assessed after 48 h using the MTT solution (Promega, USA).

CC[C@H](CO)Nc1nc(NCc2ccccc2)c2ncn(C(C)C)c2n1 [Roscovitine, reference compound]
IC50: 23.6 ± 0.98 µM

From article PMC11520136, “Design, synthesis, and biological investigations of new pyrazole derivatives as VEGFR2/CDK-2 inhibitors targeting liver cancer” (BMC Chemistry, 2024)
